Measured values from US8691187B2, “Imaging agents for detecting neurological disorders” (Eli Lilly and Company, priority 2009, dated 2014).

Test system: human AD brain slices
Assay: Human AD brain section autoradiography with F-18 tracer
Format: binding
Source text: Furthermore, the selectivity can be evaluated in brains containing only Aβ plaques/no tau aggregates, Aβ plaques/and tau aggregates, and control brains. Unfortunately, there are no AD brains with only tau and no Aβ present. By testing radiolabeled tracers in these brain sections, one can more quantitative evaluate the relative binding strength (signal strength) and selectivity of various test compounds as they all contain the same radioactive tracer. For examples, if a test tracer binds only to tau, and not amyloid, it should show no signal in the Aβ plaques only brain sections. If a compound binds only to amyloid, it should show uptake in both types of brains. The difficulty of identifying and further quantifying selective compounds lies in the relative abundance of amyloid vs. tau, which is difficult to measure.
Human AD Brain Section Autoradiography
5 micron thick human AD brain slices were first examined using antibodies for Aβ and Tau to determine whether the tested human brain contains Aβ and Tau. Thus, three types of human brain slices were selected for autoradiography: Aβ+/Tau+; Aβ+/Tau−; and Aβ−/Tau−(control).
The experimental protocol is as follows:
Pick one brain section for each type and air-dry in hood. […] The imaging plates were then scanned and the signal was measured using Fuji software to produce an autoradiography image of the brain section. […]

Structure (SMILES) | background (normal brain 32566)
FC1CCN(c2ccn3c(n2)nc2ccccc23)CC1 [Compound T777, 2-(4-fluoropiperidin-1-yl)benzo[4,5]imidazo[1,2-a]pyrimidine] | 21 PSL/mm2
FCCC1CCN(c2ccn3c(n2)nc2ccccc23)CC1 [Compound T808, 2-(4-(2-fluoroethyl)piperidin-1-yl)benzo[4,5]imidazo[1,2-a]pyrimidine] | 42 PSL/mm2
